Source: paper PMC6546883
No constants are given. Whether binding was seen depends on the method and setting. Binding seen in cells or lysates may run through a third protein. Some entries that bind do so weakly or less than the wild type.

Assays:
[1] = molecular target: T1, α4-integrin (human (endogenous in Jurkat)) (UniProt P13612); assay: co-IP; α4 immunoprecipitated with HP2/1 antibody and protein A/G-Sepharose from 1 mg lysate of Jurkat WT cells, non-treated or oxaliplatin-treated; immunoblot for α4 and CRT; PN buffer with 1% Triton X-100
T1 sequence: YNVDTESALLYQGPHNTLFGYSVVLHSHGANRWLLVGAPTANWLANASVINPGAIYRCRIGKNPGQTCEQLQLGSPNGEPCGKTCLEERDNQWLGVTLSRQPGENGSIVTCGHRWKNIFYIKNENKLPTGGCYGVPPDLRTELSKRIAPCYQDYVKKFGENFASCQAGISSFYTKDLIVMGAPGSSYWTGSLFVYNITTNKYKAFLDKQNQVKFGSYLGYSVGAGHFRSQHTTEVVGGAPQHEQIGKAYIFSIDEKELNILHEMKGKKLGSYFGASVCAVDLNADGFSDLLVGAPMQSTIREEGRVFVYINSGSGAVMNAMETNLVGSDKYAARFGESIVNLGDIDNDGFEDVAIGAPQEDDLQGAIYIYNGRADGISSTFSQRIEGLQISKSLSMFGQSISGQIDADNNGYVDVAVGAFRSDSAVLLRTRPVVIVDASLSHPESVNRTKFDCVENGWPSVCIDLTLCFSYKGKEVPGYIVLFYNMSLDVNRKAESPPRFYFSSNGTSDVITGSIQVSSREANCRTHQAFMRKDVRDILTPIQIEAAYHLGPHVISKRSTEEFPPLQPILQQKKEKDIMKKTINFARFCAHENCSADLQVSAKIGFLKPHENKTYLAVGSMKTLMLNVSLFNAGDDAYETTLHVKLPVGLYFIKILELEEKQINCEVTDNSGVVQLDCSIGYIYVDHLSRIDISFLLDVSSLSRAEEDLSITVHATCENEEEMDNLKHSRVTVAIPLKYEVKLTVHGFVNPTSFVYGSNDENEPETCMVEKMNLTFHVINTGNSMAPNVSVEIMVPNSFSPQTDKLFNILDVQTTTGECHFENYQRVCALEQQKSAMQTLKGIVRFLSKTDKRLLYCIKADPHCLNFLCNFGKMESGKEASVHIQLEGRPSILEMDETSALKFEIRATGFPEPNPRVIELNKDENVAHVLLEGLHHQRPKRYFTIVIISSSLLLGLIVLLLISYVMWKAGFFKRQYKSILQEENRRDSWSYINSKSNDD

[2] = molecular target: T1, α4-integrin (human (endogenous in Jurkat)); assay: co-IP; α4 immunoprecipitated with HP2/1 antibody and protein A/G-Sepharose from 1 mg lysate of ERp57−/− Jurkat cells, non-treated or oxaliplatin-treated; immunoblot for α4 and CRT; PN buffer with 1% Triton X-100

binding [1]: binds
Substance: calreticulin (from UniProt P27797 18-417)
binding [2]: no binding (condition: in ERp57−/− cells)
